Results: paper PMC10469732
These are yes or no findings as the source states them, for the method shown. Binding seen in cells or lysates may run through a third protein. Some binding calls cover weakened binding; strength is not graded here.

By UniProt entry, the sequences of proteins in these tests, tags left out.
UniProt P42227: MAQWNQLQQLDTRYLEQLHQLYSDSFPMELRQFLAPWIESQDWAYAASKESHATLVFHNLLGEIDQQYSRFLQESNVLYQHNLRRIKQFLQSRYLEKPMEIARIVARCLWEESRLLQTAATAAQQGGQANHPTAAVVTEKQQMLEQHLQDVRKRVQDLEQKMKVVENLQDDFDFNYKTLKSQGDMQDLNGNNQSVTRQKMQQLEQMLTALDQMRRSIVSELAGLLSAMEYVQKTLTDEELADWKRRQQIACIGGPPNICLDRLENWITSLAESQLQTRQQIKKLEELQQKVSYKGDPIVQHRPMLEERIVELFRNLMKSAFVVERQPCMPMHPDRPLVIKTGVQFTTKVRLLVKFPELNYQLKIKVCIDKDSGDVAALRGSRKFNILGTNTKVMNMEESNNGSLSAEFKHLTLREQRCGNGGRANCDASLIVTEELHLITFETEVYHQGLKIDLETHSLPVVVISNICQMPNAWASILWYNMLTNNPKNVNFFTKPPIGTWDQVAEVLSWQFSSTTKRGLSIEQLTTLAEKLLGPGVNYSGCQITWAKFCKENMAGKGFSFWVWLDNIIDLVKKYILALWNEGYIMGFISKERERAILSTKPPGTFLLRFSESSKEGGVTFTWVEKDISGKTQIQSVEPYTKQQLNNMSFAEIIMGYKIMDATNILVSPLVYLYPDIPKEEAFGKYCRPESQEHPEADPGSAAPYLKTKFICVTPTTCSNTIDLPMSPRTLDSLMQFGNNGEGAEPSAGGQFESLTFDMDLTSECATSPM
UniProt P46938: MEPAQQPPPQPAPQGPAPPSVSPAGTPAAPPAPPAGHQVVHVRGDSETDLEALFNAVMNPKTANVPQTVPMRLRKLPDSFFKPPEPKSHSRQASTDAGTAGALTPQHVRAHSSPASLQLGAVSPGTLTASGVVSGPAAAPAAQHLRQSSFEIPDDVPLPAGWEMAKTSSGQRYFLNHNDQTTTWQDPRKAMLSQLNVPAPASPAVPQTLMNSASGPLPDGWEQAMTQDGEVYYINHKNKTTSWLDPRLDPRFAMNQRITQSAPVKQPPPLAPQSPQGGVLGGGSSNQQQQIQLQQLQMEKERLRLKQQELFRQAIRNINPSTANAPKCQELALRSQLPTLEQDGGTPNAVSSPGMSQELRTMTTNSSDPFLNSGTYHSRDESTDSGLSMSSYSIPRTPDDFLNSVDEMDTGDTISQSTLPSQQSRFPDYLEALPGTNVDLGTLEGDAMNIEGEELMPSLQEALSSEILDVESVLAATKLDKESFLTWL

Target: Signal transducer and activator of transcription 3 (UniProt P42227)
Assay: co-IP; lysate in IP lysis buffer; antibody to YAP or STAT3 overnight at 4°C, Protein A/G agarose beads 2 h at 4°C, 4 washes; normal rabbit IgG as control; western blot for STAT3 and YAP

binding: binds
Substance: YAP-associated protein (YAP) (from UniProt P46938 1-488)
